Reference: PubChem BioAssay AID1224829 (NIAID, 2016)

Screen: 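Genes needed for LPS-driven NF-kappaB p65 nuclear entry in mouse macrophages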 (follow-up of hits)
Cells: mouse RAW264.7 G9 macrophage reporter cells
Reagent: single siRNA against mouse genes, 100 nM
Timing: 2 days of siRNA knock-down, then 40 min of LPS before fixing
Conditions: LPS (Salmonella minnesota R595) at 10 ng/ml
Measurement: 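High-content images after 40 min LPS exposure; GFP-p65 nucleus to surrounding ring signal ratio, normalised to plate median and non-targeting control wells, expressed as z-score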
Direction: p65 translocation z-score and gene median z-score, per vendor: higher = more nuclear NF-kappaB p65 after LPS
Hit rule: 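Active means the replicate-mean z-score lies beyond plus or minus 2, in either direction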
Calls: active = changed p65 translocation (either direction); inactive = no clear change
The deposit covers about 3,800 reagents; below is an unselected part. 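Calls cover raised and lowered translocation; gene median uses one vendor's three siRNAs; qiagen siRNAs acted more weakly than ambion siRNAs.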 Reagents against one gene are numbered here.

| gene knocked down | reagent | siRNA vendor or control pool | p65 translocation z-score, replicate mean | p65 translocation z-score, replicate 1 | p65 translocation z-score, replicate 2 | gene median z-score, per vendor | outcome |
| --- | --- | --- | --- | --- | --- | --- | --- |
| Slc16a11 | 1 | ambion single siRNA | -2.48 | -1.69 | -3.26 | -1.69 | active |
| Slc16a11 | 2 | ambion single siRNA | -0.432 | -1.36 | 0.495 | -1.69 | inactive |
| Slc16a11 | 3 | ambion single siRNA | -2.81 | -2.81 | – | -1.69 | active |
| Slc16a11 | 4 | qiagen single siRNA | 2.65 | 1.39 | 3.9 | 1.17 | active |
| Slc16a11 | 5 | qiagen single siRNA | 2.76 | 0.942 | 4.58 | 1.17 | active |
| Slc16a11 | 6 | qiagen single siRNA | -0.197 | -0.0927 | -0.302 | 1.17 | inactive |
| Ica1l (islet cell autoantigen 1-like) | 1 | ambion single siRNA | 1.72 | 2.09 | 1.36 | 0.7 | inactive |
| Ica1l (islet cell autoantigen 1-like) | 2 | ambion single siRNA | 0.7 | 0.9 | 0.499 | 0.7 | inactive |
| Ica1l (islet cell autoantigen 1-like) | 3 | ambion single siRNA | -2.19 | -1.31 | -3.07 | 0.7 | active |
| Ica1l (islet cell autoantigen 1-like) | 4 | qiagen single siRNA | 2.08 | 2.21 | 1.95 | 1.28 | active |
| Ica1l (islet cell autoantigen 1-like) | 5 | qiagen single siRNA | -0.583 | 0.613 | -1.78 | 1.28 | inactive |
| Ica1l (islet cell autoantigen 1-like) | 6 | qiagen single siRNA | 0.123 | -1.92 | 2.17 | 1.28 | inactive |
| Cd52 (CD52 antigen) | 1 | ambion single siRNA | -0.976 | -0.976 | – | 0.326 | inactive |
| Cd52 (CD52 antigen) | 2 | ambion single siRNA | 0.17 | 0.17 | – | 0.326 | inactive |
| Cd52 (CD52 antigen) | 3 | ambion single siRNA | 0.556 | 0.628 | 0.483 | 0.326 | inactive |
| Cd52 (CD52 antigen) | 4 | qiagen single siRNA | 0.0694 | 0.0766 | 0.0621 | 0.0694 | inactive |
| Cd52 (CD52 antigen) | 5 | qiagen single siRNA | -2.48 | -1.8 | -3.16 | 0.0694 | active |
| Cd52 (CD52 antigen) | 6 | qiagen single siRNA | 1.26 | 0.569 | 1.95 | 0.0694 | inactive |
| Krtap19-1 (keratin associated protein 19-1) | 1 | ambion single siRNA | -4.18 | -3.47 | -4.88 | -2.07 | active |
| Krtap19-1 (keratin associated protein 19-1) | 2 | ambion single siRNA | -2.01 | -1.64 | -2.39 | -2.07 | active |
| Krtap19-1 (keratin associated protein 19-1) | 3 | ambion single siRNA | -0.744 | 0.264 | -1.75 | -2.07 | inactive |
| Krtap19-1 (keratin associated protein 19-1) | 4 | qiagen single siRNA | -0.435 | -1.92 | 1.05 | -0.113 | inactive |
| Krtap19-1 (keratin associated protein 19-1) | 5 | qiagen single siRNA | -0.075 | 0.21 | -0.36 | -0.113 | inactive |
| Krtap19-1 (keratin associated protein 19-1) | 6 | qiagen single siRNA | -0.324 | 0.133 | -0.782 | -0.113 | inactive |
| Rarres2 (retinoic acid receptor responder (tazarotene induced) 2) | 1 | ambion single siRNA | -2.6 | -3.59 | -1.61 | -3.59 | active |
| Rarres2 (retinoic acid receptor responder (tazarotene induced) 2) | 2 | ambion single siRNA | -5.76 | -5.75 | -5.78 | -3.59 | active |
| Rarres2 (retinoic acid receptor responder (tazarotene induced) 2) | 3 | ambion single siRNA | -1.45 | -1.45 | – | -3.59 | inactive |
| Rarres2 (retinoic acid receptor responder (tazarotene induced) 2) | 4 | qiagen single siRNA | -1.07 | -1.28 | -0.866 | -1.28 | inactive |
| Rarres2 (retinoic acid receptor responder (tazarotene induced) 2) | 5 | qiagen single siRNA | 0.366 | 0.366 | – | -1.28 | inactive |
| Rarres2 (retinoic acid receptor responder (tazarotene induced) 2) | 6 | qiagen single siRNA | -2.51 | -3.36 | -1.67 | -1.28 | active |
| Lce3c (late cornified envelope 3C) | 1 | ambion single siRNA | 4.2 | 5.28 | 3.13 | 1.3 | active |
| Lce3c (late cornified envelope 3C) | 2 | ambion single siRNA | 1.3 | 1.28 | 1.32 | 1.3 | inactive |
| Lce3c (late cornified envelope 3C) | 3 | ambion single siRNA | 0.0675 | -0.447 | 0.582 | 1.3 | inactive |
| Lce3c (late cornified envelope 3C) | 4 | qiagen single siRNA | 2.4 | 2.67 | 2.12 | -0.348 | active |
| Lce3c (late cornified envelope 3C) | 5 | qiagen single siRNA | -0.746 | -0.594 | -0.899 | -0.348 | inactive |
| Lce3c (late cornified envelope 3C) | 6 | qiagen single siRNA | -0.421 | -0.74 | -0.103 | -0.348 | inactive |
| Tnfrsf11b | 1 | ambion single siRNA | -2.23 | -2.91 | -1.56 | -1.63 | active |
| Tnfrsf11b | 2 | ambion single siRNA | 0.702 | 0.377 | 1.03 | -1.63 | inactive |
| Tnfrsf11b | 3 | ambion single siRNA | -1.98 | -1.7 | -2.26 | -1.63 | inactive |
| Tnfrsf11b | 4 | qiagen single siRNA | -1.95 | -1.37 | -2.53 | -1.69 | inactive |
| Tnfrsf11b | 5 | qiagen single siRNA | -0.93 | -0.173 | -1.69 | -1.69 | inactive |
| Tnfrsf11b | 6 | qiagen single siRNA | -5.47 | -5.47 | – | -1.69 | active |
| Klra22 (killer cell lectin-like receptor subfamily A, member 22) | 1 | ambion single siRNA | -2.56 | -1.84 | -3.28 | -2.16 | active |
| Klra22 (killer cell lectin-like receptor subfamily A, member 22) | 2 | ambion single siRNA | -2.03 | -2.42 | -1.64 | -2.16 | active |
| Klra22 (killer cell lectin-like receptor subfamily A, member 22) | 3 | ambion single siRNA | -2.8 | -3.7 | -1.91 | -2.16 | active |
| Klra22 (killer cell lectin-like receptor subfamily A, member 22) | 4 | qiagen single siRNA | 5.41 | 2.6 | 8.23 | -0.989 | active |
| Klra22 (killer cell lectin-like receptor subfamily A, member 22) | 5 | qiagen single siRNA | -1.7 | -0.854 | -2.54 | -0.989 | inactive |
| Klra22 (killer cell lectin-like receptor subfamily A, member 22) | 6 | qiagen single siRNA | -1.29 | -1.12 | -1.45 | -0.989 | inactive |
| Tigar (Trp53 induced glycolysis regulatory phosphatase) | 1 | ambion single siRNA | -3.71 | -2.82 | -4.6 | -4.55 | active |
| Tigar (Trp53 induced glycolysis regulatory phosphatase) | 2 | ambion single siRNA | -4.61 | -4.51 | -4.71 | -4.55 | active |
| Tigar (Trp53 induced glycolysis regulatory phosphatase) | 3 | ambion single siRNA | -4.21 | -6.34 | -2.08 | -4.55 | active |
| Tigar (Trp53 induced glycolysis regulatory phosphatase) | 4 | qiagen single siRNA | 3.91 | 4.42 | 3.4 | 1.47 | active |
| Tigar (Trp53 induced glycolysis regulatory phosphatase) | 5 | qiagen single siRNA | 1.47 | 1.47 | – | 1.47 | inactive |
| Tigar (Trp53 induced glycolysis regulatory phosphatase) | 6 | qiagen single siRNA | 0.783 | 0.621 | 0.946 | 1.47 | inactive |
